Screening data, single-dose tests

Source: ChEMBL document CHEMBL3988442, “University of Dundee, Small-Polar-MMV Screening Library” (2021).

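Phenotypic screen: M. tuberculosis growth, cholesterol and DPPC medium, 4 days; the read-out is not stated. Tested at 500 µM. Higher reads as more growth inhibition (inferred: compounds with an IC50 in retests scored well above the rest). About 18,000 compounds were tested under these conditions; 5% (about 900) showed 50% or more at least once.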

Values are the deposited “Percent Effect”, in %. The controls that fix the scale are not given in the record; negative values are as filed. Compounds were drawn at random from those tested, without regard to their results.

For Cn1ncc2c(NCCc3cccnc3)ncnc21 the result was 15.45%. For CSCCC(O)C(=O)N(C)Cc1cnccn1 (configuration not stated) the result was -21.33%. CN(Cc1nnc2n1CCC2)C(=O)C1CCCCC1 gave -4.227%. Result for c1cn2c(n1)CCCC2 was 2.394%. Result for N#Cc1ccnc(OC(F)F)c1 was -19.93%.

CC(C)NCC(=O)NC(N)=O read -9.183%. Result for CCCNC(=O)C1CCCN(C(=O)N(C)C)C1 (configuration not stated) was 20.69%. Result for CC(C)(CNC(=O)CCS(C)(=O)=O)Cc1ccccc1 was 8.277%. For COc1cccc(CN(C)C(=O)c2cccnc2)n1 the result was -0.8347%. CC(c1ccc(F)c(F)c1)N1CCN(CCO)C(=O)C1 (configuration not stated) read 26.98%.

With O=C1CN(C(=O)Cn2ccc3ccc(Cl)cc32)CCN1 the screen gave 7.902%. With Cc1ccsc1CN(CC(=O)N1CCNC1=O)C(C)C the screen gave 6.255%. With Cc1ccc(NC(=O)CS(C)(=O)=O)c(C)c1 the screen gave -0.5001%. With CCc1nnc(SCC(N)=O)o1 the screen gave 17.29%. NCCN1CCc2c(Cl)cccc2C1=O read -6.379%.

COCC1(C(=O)N[C@@H]2CCOC[C@H]2O)CC1 gave -0.5956%. Result for CC(=O)N(Cc1noc(C)n1)C1CCNC1 (configuration not stated) was -23.93%. CN1CCN(C(=O)Cc2ccc3c(c2)OCO3)CC1 gave -24.02%. For NC(=O)C(c1ccc(Cl)cc1)N1CCNCC1 (configuration not stated) the result was 25.21%. NC1Cc2ccccc21 (configuration not stated) gave -2.726%.

Result for NCCc1ccc2cc[nH]c2c1 was 13.92%. For CC(CCN)N(C)Cc1ccccc1 (configuration not stated) the result was -5.432%. With CC(C)(CC(N)=O)NCc1ccc(F)c(C#N)c1 the screen gave 5.854%. Result for CC(SCCN1CCOCC1)C(=O)N(C)C(C)C (configuration not stated) was -4.744%. For CCOc1ccc(CSc2nnc[nH]2)cc1 the result was 55.64%.

With CCc1noc(CN2CCCC(CS(N)(=O)=O)C2)n1 (configuration not stated) the screen gave 5.658%. For c1ccc(NCCCN2CCOCC2)cc1 the result was 21.89%. Cn1cccc1C1COCCN1CC1OCCO1 (configuration not stated) gave -19.03%. For Nc1cnccc1N1CCOCC1 the result was -13.06%. For Cn1ncc(N2CCC(CNC(=O)CO)C2)cc1=O (configuration not stated) the result was -2.999%.

With CSC1(C)C(=O)Nc2c(C#N)cccc21 (configuration not stated) the screen gave -10.13%. Result for C[C@@]1(O)CCN(CCn2cc(Cl)cn2)C[C@@H]1O was -0.4833%. For CC(CN1CCOCC1)NC(=O)c1csc(Br)c1 (configuration not stated) the result was 36.15%. For Cc1cc(C)n(CC(=O)N(C)CC2(C)CCOCC2)n1 the result was 6.036%. Cn1c(C(=O)N[C@H]2COC[C@@H]2O)cc2ccccc21 read -18.27%.

For Cc1nc(C(C)(C)NCCCO)sc1C the result was 2.998%. Result for COc1ccc2c(c1)NC(=O)C2O (configuration not stated) was 4.04%. O=C(NCC1CCNCC1)c1sccc1Br gave 0.2145%. With CC(C)(C)OC(=O)c1ncccc1N the screen gave 63.04%. With Cc1nc(C)c(C(=O)N(C)c2ccc3c(c2)OCO3)o1 the screen gave -10.41%.

With Cc1cc(C(=O)Nc2cnn(C)c2)on1 the screen gave -12.23%. With O=C(CN1CCNCC1)c1ccccc1Cl the screen gave 14.01%. Result for COC(=O)c1ccc(Cl)c(CN(C)CC(N)=O)c1 was -13.48%. Result for CC(=O)Nc1ccccc1CN(C)CC(C)O (configuration not stated) was 4.87%. With COC(=O)C(C)N(Cc1ccccn1)C1CC1 (configuration not stated) the screen gave 25.58%.

CC1CN(CCCOc2ccc(C#N)cc2)CCN1 (configuration not stated) read 64.76%.

5 of the entries, repeated:

compound,percent effect
CC(C)NCC(=O)NC(N)=O,-9.183%
CC1CN(CCCOc2ccc(C#N)cc2)CCN1 (configuration not stated),64.76%
CSCCC(O)C(=O)N(C)Cc1cnccn1 (configuration not stated),-21.33%
CC(CCN)N(C)Cc1ccccc1 (configuration not stated),-5.432%
CCc1nnc(SCC(N)=O)o1,17.29%